# Laboratory results: paper PMC7954794, “Protein context shapes the specificity of SH3 domain-mediated interactions in vivo” (Nature Communications, 2021)
# Some results come without the dose or concentration used.
# Tested on: BBC1
# Assay: DHFR-PCA on solid medium, bait BBC1 (Fig. 1B)
# Assay type: cell-based, Saccharomyces cerevisiae
# Design: key: 0: SH3-independent; 1: SH3-dependent PPIs; 2: SH3-inhibited PPIs
# Details: bait BBC1, label = prey
# Text: Supplement 41467_2021_21873_MOESM8_ESM.xlsx, sheet "Fig1B" | column: medsize; medrep; Ratio; Score
row,Molecule,Score
1,"YHR114W (protein, UniProt P38822 1-633, looked up) Protein BZZ1: MSADLSIGNEIKDSFKETHKWVQNNLKWLKDIEQFYRERAKLEKDYSERLSRLSAEYFNKKSSTSVPISVGDTPTTTPGSIEAAGVVAWNEILSQTDMISKDHDQLSTDFENHVANQLSGLFTKLDMTLSKINGFNNDMVNKKDNIYHELEKAKKDYDEACSTMEMARNRYTKASNDRNKKKLDEKEMEMNKCKNEYLIKINQANRTKDKYYFQDVPEVLDLLQDVNEAKTLFLNDLWLKAASVENDLGANVSKRLQAANSVVKQNKPSLNTAIFIKHNLKNWKEPQDFVYKPSPVWHDDEKFAVPSSLEVEDLRIKLAKAENDYNSLQDKTQNELSKLSTLNKIKHEMKTNEDNINATKFYDTLKEYLNVVSPFTSHETLKLQAEVQIESIQNNVPEEYDLSTDNIDLSKTKKKSGIFSKFKHNILNVDSKPSSGGSTGNGNGGPLHITSLFNTSRRTRLGSAPNNAGEDSDNNSIRTTSTNNTKKTTQNSSDDGKNKVLYAYVQKDDDEITITPGDKISLVARDTGSGWTKINNDTTGETGLVPTTYIRISSAATVKANDRGPAPEVPPPRRSTLPVRTMEAIYAYEAQGDDEISIDPGDIITVIRGDDGSGWTYGECDGLKGLFPTSYCK",1
2,"YIR003W (protein, UniProt P40563 1-679, looked up) Altered inheritance of …: MPSEVTPKVPERPSRRKTSELFPLSGSESGDIKANSEPPTPAGTPNVPTRRPILKAKTMTSFESGMDQESLPKVPLQRPVRRSTTEELNNVMNNTSKELEEIESLISKHNIHNVSRKKSPTSVEEGKVAAIHQNGQRSASDNKTSTNPSPLEKNEHEGAEGNESAISPSNLVNKSNNEVTEHSDSEDLTEKQKVHAALDNEAGDRSHFEEKLIPGDMKVQVDVSKDVEEGSLNALPPSGITESDDKAEKFTKHPESSLEELQKHQEQQEEKIFQNPTDEESTTSLNEKQEGKDNMEVNSQPQGPSDTETVIAATSSNVPSQIASEEENDVPVIPRSRPKKDFEAHVQKEELPNTQEKRVSEECDSTLISTEEESKIPKIPSERPKRRAPPPVPKKPSSRIAAFQEMLQKQQQQDLHNNGNSSATTASADIAKKHTDSSITSDTTKADFTSKLNGLFALPGMVNPGQLPPSLEKKLSSPDTESKLGPQDQSQAKTGPLGGTRRGRGPRGRKLPSKVASVEKIEEDDNTNKIEIFNNWNVSSSFSKEKVLIDTTPGEQAERALDEKSKSIPEEQREQSPNKMEAALCPFELDEKEKLPANAESDPLSQLPQTNAVGNRKAISEESLSPSEAIANRDQNDTTEIQEQQMEDQMEVDMERELSGGYEDVDSALHSEEASFHSL",0
3,"YNL243W (protein, UniProt P33338 1-968, looked up) Protein SLA2: MSRIDSDLQKALKKACSVEETAPKRKHVRACIVYTWDHQSSKAVFTTLKTLPLANDEVQLFKMLIVLHKIIQEGHPSALAEAIRDRDWIRSLGRVHSGGSSYSKLIREYVRYLVLKLDFHAHHRGFNNGTFEYEEYVSLVSVSDPDEGYETILDLMSLQDSLDEFSQIIFASIQSERRNTECKISALIPLIAESYGIYKFITSMLRAMHRQLNDAEGDAALQPLKERYELQHARLFEFYADCSSVKYLTTLVTIPKLPVDAPDVFLINDVDESKEIKFKKREPSVTPARTPARTPTPTPPVVAEPAISPRPVSQRTTSTPTGYLQTMPTGATTGMMIPTATGAANAIFPQATAQMQPDFWANQQAQFANEQNRLEQERVQQLQQQQAQQELFQQQLQKAQQDMMNMQLQQQNQHQNDLIALTNQYEKDQALLQQYDQRVQQLESEITTMDSTASKQLANKDEQLTALQDQLDVWERKYESLAKLYSQLRQEHLNLLPRFKKLQLKVNSAQESIQKKEQLEHKLKQKDLQMAELVKDRDRARLELERSINNAEADSAAATAAAETMTQDKMNPILDAILESGINTIQESVYNLDSPLSWSGPLTPPTFLLSLLESTSENATEFATSFNNLIVDGLAHGDQTEVIHCVSDFSTSMATLVTNSKAYAVTTLPQEQSDQILTLVKRCAREAQYFFEDLMSENLNQVGDEEKTDIVINANVDMQEKLQELSLAIEPLLNIQSVKSNKETNPHSELVATADKIVKSSEHLRVDVPKPLLSLALMIIDAVVALVKAAIQCQNEIATTTSIPLNQFYLKNSRWTEGLISAAKAVAGATNVLITTASKLITSEDNENTSPEQFIVASKEVAASTIQLVAASRVKTSIHSKAQDKLEHCSKDVTDACRSLGNHVMGMIEDDHSTSQQQQPLDFTSEHTLKTAEMEQQVEILKLEQSLSNARKRLGEIRRHAYYNQDDD",1
4,"YFL010C (protein, UniProt P43582 1-211, looked up) WW domain-containing protein …: MAQSKSNPPQVPSGWKAVFDDEYQTWYYVDLSTNSSQWEPPRGTTWPRPKGPPPGVNNEKSSRQQADQAPPPYSSQSTPQVQAGAQAQQPRYYQPQQPQYPQYPQQQRYYPQQAPMPAAAPQQAYYGTAPSTSKGSGHGGAMMGGLLGVGAGLLGGAMLEHAFDDHNYDGPDTVVVENNYYGDDAGGSDGGFDDAGGFDGGFDDGFDGSDF",1
5,"YOR042W (protein, UniProt Q08412 1-411, looked up) Ubiquitin-binding protein CUE5: MEEKEGIKDSSLLEKSNVPESINEDISKTTDVDLNSDGKKDNDTSAKDGTPKVEEKVNKSSGIDEDEVVTPAEDAKEEEEEHPPLPARRKSEEEPSKENPILQELKDAFPNLEEKYIKAVIIASQGVLSPAFNALLFLSDPESGKDIELPTQPVRKNPEAPARRRQTQLEQDELLARQLDEQFNSSHSRRRNRDRATRSMHEQRRRRHNPNEREQHHEDSEEEDSWSQFVEKDLPELTDRAGRSLQDTANKVSNWISDAYRRNFASGNEQNDNQHGHQDQQEWEPEIVDLSQGGKNSRPQQPERRRFNSFGVQVGDDSLESHGITLHNEDGFEDDEDVPPQLPTRTKSGESTGKVVAETTYIDTPDTETKKKWQPLPPEPLDTTPTKVNAVSRNKKNPDEDEFLINSDDEM",1
6,"YBL039C (protein, UniProt P28274 1-579, looked up) CTP synthase 1: MKYVVVSGGVISGIGKGVLASSTGMLMKTLGLKVTSIKIDPYMNIDAGTMSPLEHGECFVLDDGGETDLDLGNYERYLGVTLTKDHNITTGKIYSHVIAKERKGDYLGKTVQIVPHLTNAIQDWIERVAKIPVDDTGMEPDVCIIELGGTVGDIESAPFVEALRQFQFKVGKENFALIHVSLVPVIHGEQKTKPTQAAIKGLRSLGLVPDMIACRCSETLDKPTIDKIAMFCHVGPEQVVNVHDVNSTYHVPLLLLEQKMIDYLHARLKLDEISLTEEEKQRGLELLSKWKATTGNFDESMETVKIALVGKYTNLKDSYLSVIKALEHSSMKCRRKLDIKWVEATDLEPEAQESNKTKFHEAWNMVSTADGILIPGGFGVRGTEGMVLAARWARENHIPFLGVCLGLQIATIEFTRSVLGRKDSHSAEFYPDIDEKNHVVVFMPEIDKETMGGSMRLGLRPTFFQNETEWSQIKKLYGDVSEVHERHRHRYEINPKMVDELENNGLIFVGKDDTGKRCEILELKNHPYYIATQYHPEYTSKVLDPSKPFLGLVAASAGILQDVIEGKYDLEAGENKFNF",1
7,"YBL007C (protein, UniProt P32790 1-1244, looked up) Actin cytoskeleton-regulatory …: MTVFLGIYRAVYAYEPQTPEELAIQEDDLLYLLQKSDIDDWWTVKKRVIGSDSEEPVGLVPSTYIEEAPVLKKVRAIYDYEQVQNADEELTFHENDVFDVFDDKDADWLLVKSTVSNEFGFIPGNYVEPENGSTSKQEQAPAAAEAPAATPAAAPASAAVLPTNFLPPPQHNDRARMMQSKEDQAPDEDEEGPPPAMPARPTATTETTDATAAAVRSRTRLSYSDNDNDDEEDDYYYNSNSNNVGNHEYNTEYHSWNVTEIEGRKKKKAKLSIGNNKINFIPQKGTPHEWSIDKLVSYDNEKKHMFLEFVDPYRSLELHTGNTTTCEEIMNIIGEYKGASRDPGLREVEMASKSKKRGIVQYDFMAESQDELTIKSGDKVYILDDKKSKDWWMCQLVDSGKSGLVPAQFIEPVRDKKHTESTASGIIKSIKKNFTKSPSRSRSRSRSKSNANASWKDDELQNDVVGSAAGKRSRKSSLSSHKKNSSATKDFPNPKKSRLWVDRSGTFKVDAEFIGCAKGKIHLHKANGVKIAVAADKLSNEDLAYVEKITGFSLEKFKANDGSSSRGTDSRDSERERRRRLKEQEEKERDRRLKERELYELKKARELLDEERSRLQEKELPPIKPPRPTSTTSVPNTTSVPPAESSNNNNSSNKYDWFEFFLNCGVDVSNCQRYTINFDREQLTEDMMPDINNSMLRTLGLREGDIVRVMKHLDKKFGRENIASIPTNATGNMFSQPDGSLNVATSPETSLPQQLLPQTTSPAQTAPSTSAETDDAWTVKPASKSESNLLSKKSEFTGSMQDLLDLQPLEPKKAAASTPEPNLKDLEPVKTGGTTVPAAPVSSAPVSSAPAPLDPFKTGGNNILPLSTGFVMMPMITGGDMLPMQRTGGFVVPQTTFGMQSQVTGGILPVQKTGNGLIPISNTGGAMMPQTTFGAAATVLPLQKTGGGLIPIATTGGAQFPQTSFNVQGQQQLPTGSILPVQKTANGLISANTGVSMPTVQRTGGTMIPQTSFGVSQQLTGGAMMTQPQNTGSAMMPQTSFNAVPQITGGAMMPQTSFNALPQVTGGAMMPLQRTGGALNTFNTGGAMIPQTSFSSQAQNTGGFRPQSQFGLTLQKTGGIAPLNQNQFTGGAMNTLSTGGVLQQQQPQTMNTFNTGGVMQELQMMTTFNTGGAMQQPQMMNTFNTDGIMQQPQMMNTFNTGGAMQQPQQQALQNQPTGFGFGNGPQQSRQANIFNATASNPFGF",1
8,"YGR229C (protein, UniProt P32566 1-505, looked up) Cell wall assembly regulator …: MDLFKRKVKEWVYSLSTDDHYAEYNPDETPTFNMGKRLNSNNGQVNPSQMHLNSVDEEMSMGFQNGVPSNEDINIDEFTSTESNDGVSETLLAWRHIDFWTSEHNPDLNATLSDPCTQNDITHAEEDLEVSFPNPVKASFKIHDGQEDLESMTGTSGLFYGFQLMTLDQVVAMTQAWRNVAKNLNKRSQQGLSHVTSTGSSSSMERLNGNKFKLPNIPDQKSIPPNAVQPVYAHPAWIPLITDNAGNHIGVDLAPGPNGKYAQIITFGRDFDTKFVIAENWGEFLLSFANDLEAGNWYLVDDNDDYFSGDGELVFRDKKSNGPIQDYFEVLKRRTWIKYQENLRSQQQKSQPDTSLQEQKYVPASQKKVAAEQPSTLNAESIKGEDSGSADVQSVQDHESVKIVKTEPSEAETTTVNTESLGQAEHEIKADNVDIKQESERKEDEKQPKVEEKEHVENEHVTESAKKDDDVNKQTEEMNKKEENEIRSDDAKVEEAREEFENIAL",1
9,"YLR196W (protein, UniProt P21304 1-576, looked up) Periodic tryptophan protein 1: MISATNWVPRGFSSEFPEKYVLDDEEVERINQLAQLNLDDAKATLEEAEGESGVEDDAATGSSNKLKDQLDIDDDLKEYNLEEYDDEEIADNEGGKDVSMFPGLSNDSDVKFHEGEKGEDPYISLPNQEDSQEEKQELQVYPSDNLVLAARTEDDVSYLDIYVYDDGAGFHSSDIPVEEGDEADPDVARGLVRDPALYVHHDLMLPAFPLCVEWLDYKVGSNSEEAANYAAIGTFDPQIEIWNLDCVDKAFPDMILGEPLDNSMVSLKSKKKKKKSKTGHITTHHTDAVLSMAHNKYFRSVLASTSADHTVKLWDLNSGNAARSLASIHSNKNVSSSEWHMLNGSILLTGGYDSRVALTDVRISDESQMSKYWSAMAGEEIETVTFASENIILCGTDSGNVYSFDIRNNENRKPVWTLKAHDAGISTLCSNKFIPGMMSTGAMGEKTVKLWKFPLDDATNTKGPSMVLSRDFDVGNVLTSSFAPDIEVAGTMVIGGVNKVLKLWDVFTNRSVRKSFKSELENVQARAKEEAQKIGKSSRIARKYTSNDNPDTVITIDDQGEDEEEREGGDEHDDMA",1
